Our source for the binding values is publication PMC11910144.

By UniProt entry, the sequences of proteins in these tests, tags left out.
UniProt P67809: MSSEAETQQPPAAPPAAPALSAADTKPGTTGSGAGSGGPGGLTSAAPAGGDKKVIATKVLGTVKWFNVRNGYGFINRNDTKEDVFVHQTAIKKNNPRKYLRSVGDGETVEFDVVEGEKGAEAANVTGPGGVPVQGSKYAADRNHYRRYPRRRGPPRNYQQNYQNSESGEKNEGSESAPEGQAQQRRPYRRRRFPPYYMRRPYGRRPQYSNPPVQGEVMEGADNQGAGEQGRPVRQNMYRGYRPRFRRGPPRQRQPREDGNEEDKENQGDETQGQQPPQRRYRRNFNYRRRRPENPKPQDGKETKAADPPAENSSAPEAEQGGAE
UniProt Q04637: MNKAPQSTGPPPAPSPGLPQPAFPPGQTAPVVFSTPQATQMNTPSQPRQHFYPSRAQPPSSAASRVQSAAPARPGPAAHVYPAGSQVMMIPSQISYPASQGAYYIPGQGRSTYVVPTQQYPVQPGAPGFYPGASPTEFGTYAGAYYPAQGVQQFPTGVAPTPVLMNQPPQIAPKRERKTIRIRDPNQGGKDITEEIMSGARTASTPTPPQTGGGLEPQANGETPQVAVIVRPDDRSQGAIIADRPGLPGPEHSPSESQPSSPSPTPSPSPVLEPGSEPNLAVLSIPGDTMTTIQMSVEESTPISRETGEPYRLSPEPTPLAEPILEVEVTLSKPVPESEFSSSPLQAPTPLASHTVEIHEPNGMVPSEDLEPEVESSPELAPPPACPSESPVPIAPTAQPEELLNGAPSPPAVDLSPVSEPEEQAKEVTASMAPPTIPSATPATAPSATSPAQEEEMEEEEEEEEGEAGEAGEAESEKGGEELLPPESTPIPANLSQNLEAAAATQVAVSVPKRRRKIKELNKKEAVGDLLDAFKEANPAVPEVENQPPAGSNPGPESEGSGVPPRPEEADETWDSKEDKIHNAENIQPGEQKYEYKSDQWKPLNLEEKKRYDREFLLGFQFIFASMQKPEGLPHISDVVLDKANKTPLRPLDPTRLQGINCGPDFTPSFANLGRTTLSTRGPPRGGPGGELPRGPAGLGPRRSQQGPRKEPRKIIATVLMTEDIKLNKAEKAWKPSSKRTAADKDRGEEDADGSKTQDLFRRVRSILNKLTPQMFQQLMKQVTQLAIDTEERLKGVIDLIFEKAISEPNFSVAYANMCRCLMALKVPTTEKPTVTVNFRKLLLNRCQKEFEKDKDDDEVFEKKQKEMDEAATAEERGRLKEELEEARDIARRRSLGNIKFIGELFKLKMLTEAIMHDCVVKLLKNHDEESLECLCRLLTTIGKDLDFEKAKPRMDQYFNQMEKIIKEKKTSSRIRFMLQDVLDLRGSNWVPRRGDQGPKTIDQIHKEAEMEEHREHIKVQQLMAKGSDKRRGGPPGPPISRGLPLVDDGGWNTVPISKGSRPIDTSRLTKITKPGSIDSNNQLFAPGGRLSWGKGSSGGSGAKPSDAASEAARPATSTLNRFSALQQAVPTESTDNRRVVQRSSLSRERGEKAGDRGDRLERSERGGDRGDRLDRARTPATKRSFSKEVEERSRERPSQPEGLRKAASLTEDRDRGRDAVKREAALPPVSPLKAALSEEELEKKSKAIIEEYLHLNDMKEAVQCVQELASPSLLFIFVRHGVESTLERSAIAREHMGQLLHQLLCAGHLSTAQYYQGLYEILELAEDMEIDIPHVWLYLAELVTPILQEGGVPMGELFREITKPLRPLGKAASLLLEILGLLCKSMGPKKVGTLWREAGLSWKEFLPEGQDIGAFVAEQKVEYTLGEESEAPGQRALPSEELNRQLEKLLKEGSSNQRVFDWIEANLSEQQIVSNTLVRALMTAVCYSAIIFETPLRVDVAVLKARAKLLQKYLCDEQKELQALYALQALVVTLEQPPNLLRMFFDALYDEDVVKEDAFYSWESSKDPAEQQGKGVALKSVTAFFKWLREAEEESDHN
UniProt P38919: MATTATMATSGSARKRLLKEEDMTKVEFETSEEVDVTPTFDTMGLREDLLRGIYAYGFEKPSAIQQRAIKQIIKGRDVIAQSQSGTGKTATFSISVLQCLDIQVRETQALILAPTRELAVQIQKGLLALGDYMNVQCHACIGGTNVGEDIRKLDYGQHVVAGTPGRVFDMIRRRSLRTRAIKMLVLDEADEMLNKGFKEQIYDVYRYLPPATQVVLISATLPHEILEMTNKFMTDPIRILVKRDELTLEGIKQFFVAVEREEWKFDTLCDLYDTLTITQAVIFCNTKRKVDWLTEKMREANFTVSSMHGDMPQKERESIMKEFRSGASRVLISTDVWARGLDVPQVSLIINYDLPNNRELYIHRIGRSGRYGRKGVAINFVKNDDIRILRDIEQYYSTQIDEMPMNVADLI
UniProt P60842: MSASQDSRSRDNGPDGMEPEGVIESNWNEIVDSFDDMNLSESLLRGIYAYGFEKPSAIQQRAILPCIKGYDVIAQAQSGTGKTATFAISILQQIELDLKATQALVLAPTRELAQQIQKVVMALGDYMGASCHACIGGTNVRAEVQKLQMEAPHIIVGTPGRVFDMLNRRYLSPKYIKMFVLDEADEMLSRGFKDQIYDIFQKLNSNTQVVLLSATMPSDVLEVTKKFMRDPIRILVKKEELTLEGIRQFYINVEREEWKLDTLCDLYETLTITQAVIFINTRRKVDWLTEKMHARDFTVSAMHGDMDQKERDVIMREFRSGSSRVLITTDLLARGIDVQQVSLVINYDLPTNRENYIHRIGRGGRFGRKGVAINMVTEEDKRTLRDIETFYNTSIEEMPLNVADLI

No constants are given. Whether binding was seen depends on the method and setting. In cells and extracts the contact can be indirect. These calls come from enrichment with a bait or labelling near it, and not all partners need be listed.

In the experiment the target is YBX1, endogenous (human (endogenous in Huh7 and HepG2)) (UniProt P67809). Put plainly: affinity purification with mass spectrometry; IP of endogenous YBX1 with anti-YBX1 (IgG as control) from Huh7 and HepG2 lysates, silver staining, bands excised, MS/MS (4D label free/DIA).
For the substance “EIF4G1, endogenous (from UniProt Q04637 1-1599)”, the binding result is “binds weakly”.

On to “EIF4A3, endogenous (from UniProt P38919 1-411)”, for which the binding entry was “binds”.

Regarding “Eukaryotic Translation Initiation Factor 4A1 (EIF4A1), endogenous (from UniProt P60842 1-406)”, the binding entry was “binds”.
